# Library screening results

The values are deposited in ChEMBL (CHEMBL3988442, “University of Dundee, Small-Polar-MMV Screening Library” (2021)).

Results are given as percent effect. How 0% and 100% were set is not recorded. Most values in the screen are low, and negative values occur. Compounds were drawn at random from those tested, without regard to their results. A dash means the value is not listed here; it may have been measured.

A: 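Whole-cell assay for inhibitors of Mycobacterium tuberculosis growth, labelled Cornell in the record; the read-out is not stated. The concentration is filed as 10 mM, unlikely as a test dose, so the dose is not known. The record gives no direction; compounds strong in two other growth screens of this library score well above the rest, so higher reads as stronger inhibition. Size under these conditions: about 53,000 compounds, about 900 of them at 50% or above in at least one test.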
B: 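Assay on Mycobacterium tuberculosis, filed only as a heat shock assay from Cornell; the read-out is not stated. The concentration is filed as 10 mM, unlikely as a test dose, so the dose is not known. Higher reads as stronger inhibition (inferred: compounds with an IC50 in retests scored well above the rest). About 69,000 compounds were tested under these conditions; 1.4% (about 930) showed 50% or more at least once.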

compound,A,B
c1ccc(OCCCN2CCOC(CNc3cccnn3)C2)cc1 (stereo unspecified),-,-0.8677
CCn1ccnc1C1CCN(C(=O)C(O)c2ccc(Cl)cc2)CC1 (stereo unspecified),4.279,-46.33
CC(C)(N)C(=O)N1CCC(c2nccnc2Oc2cccc(F)c2)CC1,-,-15.48
Cc1[nH]ccc1C(=O)NCC1CC(=O)N(CCc2ccccc2)C1 (stereo unspecified),-,2.046
CN(C)C(=O)CN1CCCC1c1cccc(Cc2ccccc2F)n1 (stereo unspecified),23.23,35.24
CC(C(=O)NC(C)(C)C)N1CCC(C(=O)Nc2cnccn2)CC1 (stereo unspecified),-25.34,4.65
CC(C)NC(=O)c1ccc2c(c1)C(c1nc[nH]n1)CN2C (stereo unspecified),-20.76,1.781
Cc1nnsc1C(=O)N1CC(c2nc3ccccc3[nH]2)C1,8.684,0.8786
O=C(Cc1c[nH]c2ncccc12)NCC(O)c1ccccc1F (stereo unspecified),-16.4,-9.1
CC(C)N(C)Cc1cc(=O)n2c(n1)CN(C(=O)c1ccnnc1)CCC2,3.101,9.024
COc1cc(OC)cc(-c2cc(CN)nc3ccnn23)c1.Cl,-18.78,-4.003
CCc1ocnc1C(=O)N1CCN(c2ccc3ccccc3c2)CC1,31.43,-26.9
CC(=O)N1N=C(c2ccco2)OC1C(=O)N(CC(C)C)CC(C)C (stereo unspecified),-5.592,7.692
COc1ccc(Oc2cncc(C3CCCN3C(C)=O)n2)cc1 (stereo unspecified),-6.062,-29.46
O=C(NCc1cc(=O)n2c(n1)CN(CC1CCOC1)CCC2)C1CC1.O=C(O)C(F)(F)F (stereo unspecified),-4.301,-38.61
CC(C)(O)CSCCNCc1ccc(Cl)c2cccnc12,-,-44
Cc1ncsc1-c1nnc(C2CCN(Cc3ccc(Cl)cc3)CC2)o1,-,-25.78
O=C(CNc1nc(C(F)(F)F)cs1)N1CCc2sccc2C1,-8.608,-7.236
Cc1nccc(-c2cccc(NCC(=O)N3CCOCC3)c2)n1,9.914,-8.697
COCc1ccccc1C(=O)NCC(O)c1ccccc1F (stereo unspecified),17.01,2.625
Cc1ncc(CN2CCC(n3cc(-c4ccc(F)cc4)nn3)CC2)cn1,31.21,13.47
CC(C)Oc1ccc(CN2CCCC(N3CCCC3)C2)cc1CO (stereo unspecified),1.758,-52.71
Br.Cc1ccccc1OC1CCN(CC(=O)Nc2ccn(C)n2)CC1,51.43,-14.97
CC(=O)N1CCN(C(=O)c2ccc(Sc3ccccn3)cc2)CC1,23.11,-19.94
O=C(CCCOc1ccccc1)N1CCCC1Cn1cccn1 (stereo unspecified),-5.631,15.27
CN1CCC(Cc2nc(-c3cnccn3)n(Cc3ccccc3)n2)CC1,9.507,7.26
CCN(Cc1ccc(CN(C)C)cc1)C(=O)c1ccncc1O,-,-3.563
Cc1cc(C)nc(N2CCN(C(=O)c3ccc(C4CCCO4)s3)CC2)n1 (stereo unspecified),-,-2.326
CCS(=O)(=O)N1CCC2(CCCN(c3ncc(F)cn3)C2)C1 (stereo unspecified),-50.8,-14.44
CN1CCN(CC2CCN(C(=O)CCC3CCCCC3)CC2)CC1,21.11,-5.092
O=C(Cn1cccn1)NCC1(c2ccccc2)CC1,-,-15.06
CCCS(=O)(=O)N1CCCC(c2cccc(C(=O)O)c2)C1 (stereo unspecified),-,12.46
CSc1nccn1-c1ccc(C(=O)NCC2CC2)cc1,-7.263,-10.63
COc1cc2cc(C(=O)N[C@@H](C)C(=O)O)n(C)c2c(OC)c1OC,-,1.704
CCc1cnc(N)nc1NCCn1cc(Cl)cn1,15.19,7.607
CC(CO)(NC(=O)Nc1nnc(C(F)F)s1)C1CC1 (stereo unspecified),-,-12.36
O=C(c1ccnnc1)N1CCC2(CC1)CCN(C(=O)c1cccnc1)C2,-9.928,10.01
COCCNC(=O)CN(C)CCn1nc2ccccn2c1=O,-0.4681,-7.241
CC(C)(C)CC(=O)NCCCn1cncn1,-,1.073
CC(C)C(=O)N1CCOC[C@H](Oc2ccc(C(F)(F)F)cc2)C1,13.49,-14.83
c1ccc2c3c([nH]c2c1)C(c1nn[nH]n1)CCC3 (stereo unspecified),-23.39,4.817
COCCN1C[C@@H](C)[C@@]2(COCCN(C(=O)Cc3ccccc3)C2)C1.O=C(O)C(F)(F)F,36.9,2.8
Cc1ccc(-n2c(SCC(=O)O)nnc2-c2ccccc2)cc1,15.24,15.45
Cc1cccnc1[C@H](C)NC(=O)Cc1cc2c(cc1Cl)OCCO2,-4.616,-50.17
C[C@@H]1CN(C2CCN(Cc3cnc(-c4cccs4)nc3)CC2)C[C@H](C)O1,19.04,-10.26
Cc1nc(CNC(C(=O)N2CCOCC2)c2ccccc2)cs1 (stereo unspecified),22.06,9.963
COCc1cn(C2CCN(Cc3ccc(Cl)s3)CC2)nn1,-9.91,8.077
COc1ccccc1CNC1(CCO)CCOCC1,-3.161,-14.06
CN1CCN(c2ncccn2)CC1C(N)=O (stereo unspecified),-68.23,-5.649
CC(C)CCN(C(=O)Nc1cccc(C(=O)N(C)C)c1)C1CC1,-,-19.48
CC(C)S(=O)(=O)CC(=O)NCC(Cc1ccc(F)cc1)C(N)=O (stereo unspecified),7.629,10.08
CCc1cccc(OC2CN(C(=O)[C@@H](N)CCSC)C2)c1,-,3.886
CCCn1nc(C)c2c1NC(=O)CC2c1ccc(CN2CCCC2)s1 (stereo unspecified),-,-6.216
Cc1cc2cc(C(=O)N3C[C@H](O)[C@]4(CCCO4)C3)ccc2o1,-,-3.118
COc1ccccc1CC1CCCN(CC(=O)NC2CC2)C1 (stereo unspecified),30.61,-3.103
CC(C)(C)c1nc(NS(=O)(=O)c2cccc(F)c2)no1,10.66,25.07
Cc1nc(C(=O)N2CC[C@@]3(C[C@H](NS(C)(=O)=O)CCO3)C2)cs1,-38.61,-0.706
COc1cccc(OCc2nnc3n2N=C(C(C)(C)C)CS3)c1,-,-17.45
CCN(Cc1noc(CC(C)C)n1)Cc1ncccc1C(=O)O,14.55,-11.26
CCCn1nc(-c2nc(Cc3ccc(OC)cc3)no2)ccc1=O,1.74,-4.601
NC(=O)c1sc2ccccc2c1C1CCN(S(=O)(=O)N2CCOCC2)C1 (stereo unspecified),-20.09,-6.923
O=c1c(CN2CC3CCCN3C[C@@H]2CCO)coc2ccc(Cl)cc12 (stereo partly specified),22.96,12.8
O=S(=O)(CCN1CCN(c2ccccc2O)CC1)c1ccc(Cl)cc1,33.85,-11.36
CCNC(=O)NCc1ccnc(N(C)C)n1,4.231,15.26
CC(NCc1cnc(C2CCC2)s1)c1ccc(-n2cccn2)cc1 (stereo unspecified),-,-26.29
COc1ccc(CN(C(=O)C(C)SC)c2cnn(C)c2)c(OC)c1 (stereo unspecified),-42.2,-0.4799
O=C(COCc1ccccc1)N1CCN(Cc2ccccc2F)C(=O)C1,-,-17.83
O=C(O)C(F)(F)F.[H][C@@]12COC[C@]1(CNC(=O)c1ccsc1)CN(Cc1nccs1)C2,-14.31,-31.52
CCC(NCc1ccccn1)c1ccccc1OCC(=O)NC (stereo unspecified),-,1.391
O=S(=O)(N1CCCC1)N(Cc1ccccc1)CC1CCCO1 (stereo unspecified),14.9,-6.392
CN1CCc2nnc(C3CCCN3S(=O)(=O)c3ccc(F)cc3)n2CC1 (stereo unspecified),59.34,1.378
Cc1cc(C[C@@H]2COC[C@@H]2NC(=O)CN2CCCCCC2)on1,-,-11.68
CC(=O)N1CCC[C@@H](NCc2cccc(F)c2)[C@@H]1c1ccc(C)s1.Cl,-22.92,4.639
CN(C)c1ncc(CN2CCCC(Nc3ccc4c(c3)OCCO4)C2)s1 (stereo unspecified),37,9.07

6 of the entries, repeated:

- COc1ccc(Oc2cncc(C3CCCN3C(C)=O)n2)cc1 (stereo unspecified) | A: -6.062%; B: -29.46%
- CC(C)CCN(C(=O)Nc1cccc(C(=O)N(C)C)c1)C1CC1 | B: -19.48%
- O=C(CCCOc1ccccc1)N1CCCC1Cn1cccn1 (stereo unspecified) | A: -5.631%; B: 15.27%
- COCc1cn(C2CCN(Cc3ccc(Cl)s3)CC2)nn1 | A: -9.91%; B: 8.077%
- COCCN1C[C@@H](C)[C@@]2(COCCN(C(=O)Cc3ccccc3)C2)C1.O=C(O)C(F)(F)F | A: 36.9%; B: 2.8%
- COCc1ccccc1C(=O)NCC(O)c1ccccc1F (stereo unspecified) | A: 17.01%; B: 2.625%